No constants are given. Whether binding was seen depends on the method and setting. Binding calls can cover weak binding; strength is not graded here.
Biological target: T1, IRS1 peptide YMPMpS (phospho-S616), pS-IRS1 (human)
T1 sequence (peptide, phosphoserine at S616 (pS)): CHTDDGYMPMSPGVA
Assay: pull-down

Chains of the proteins cited; added tags and fusions are not shown. Lines headed by an entry give the natural chain unless they say otherwise; changes in a name come on top.
UniProt Q96CW1: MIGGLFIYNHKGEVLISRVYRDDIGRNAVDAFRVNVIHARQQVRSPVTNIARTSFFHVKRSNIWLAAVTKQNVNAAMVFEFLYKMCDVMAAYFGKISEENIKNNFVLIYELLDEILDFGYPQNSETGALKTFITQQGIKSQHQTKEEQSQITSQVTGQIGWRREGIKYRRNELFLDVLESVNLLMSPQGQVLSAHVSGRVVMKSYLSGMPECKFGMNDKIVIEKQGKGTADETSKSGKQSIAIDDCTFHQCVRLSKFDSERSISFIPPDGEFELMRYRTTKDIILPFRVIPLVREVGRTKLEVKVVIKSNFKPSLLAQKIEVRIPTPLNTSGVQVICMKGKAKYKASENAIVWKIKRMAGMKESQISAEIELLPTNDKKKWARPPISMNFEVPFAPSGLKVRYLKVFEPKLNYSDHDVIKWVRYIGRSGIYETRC

binding, binds:
AP2M1 (residues 160-435) with H416 mutated (from UniProt Q96CW1) (domain or fragment)
AP2M1 (residues 160-435) with K405 mutated (from UniProt Q96CW1) (domain or fragment)
AP2M1 (residues 160-435) with K420 mutated (from UniProt Q96CW1) (domain or fragment)

From article doi:10.1101/419911
